Data: publication PMC4523862
These are yes or no findings as the source states them, for the method shown. In cells and extracts the contact can be indirect. Some entries that bind do so weakly or less than the wild type. For part of these data: Tags and fused reporters may be left off the sequences shown.

Protein sequences, listed by entry. Tags and fused reporters are not part of them.
UniProt Q9Y6K9: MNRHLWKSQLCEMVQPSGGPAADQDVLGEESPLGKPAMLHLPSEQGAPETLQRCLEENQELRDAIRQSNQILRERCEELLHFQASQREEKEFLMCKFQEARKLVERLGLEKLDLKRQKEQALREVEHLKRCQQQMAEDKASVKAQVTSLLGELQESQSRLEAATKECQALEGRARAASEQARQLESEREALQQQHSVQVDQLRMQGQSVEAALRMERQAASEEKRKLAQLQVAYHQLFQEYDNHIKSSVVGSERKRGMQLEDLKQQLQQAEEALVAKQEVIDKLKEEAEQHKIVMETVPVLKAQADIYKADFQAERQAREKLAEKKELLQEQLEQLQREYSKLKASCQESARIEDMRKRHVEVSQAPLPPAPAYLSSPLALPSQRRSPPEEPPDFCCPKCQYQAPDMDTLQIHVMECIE

Tests used:
[1] = biological target: T1, USP18 (endogenous, THP-1 derived macrophages) (human (endogenous in THP-1)) (UniProt Q9UMW8); experiment: co-IP; endogenous proteins, extracts of THP-1 derived macrophages treated for various times with LPS (Fig. 4h); precipitated with anti-USP18, immunoblot
T1 sequence: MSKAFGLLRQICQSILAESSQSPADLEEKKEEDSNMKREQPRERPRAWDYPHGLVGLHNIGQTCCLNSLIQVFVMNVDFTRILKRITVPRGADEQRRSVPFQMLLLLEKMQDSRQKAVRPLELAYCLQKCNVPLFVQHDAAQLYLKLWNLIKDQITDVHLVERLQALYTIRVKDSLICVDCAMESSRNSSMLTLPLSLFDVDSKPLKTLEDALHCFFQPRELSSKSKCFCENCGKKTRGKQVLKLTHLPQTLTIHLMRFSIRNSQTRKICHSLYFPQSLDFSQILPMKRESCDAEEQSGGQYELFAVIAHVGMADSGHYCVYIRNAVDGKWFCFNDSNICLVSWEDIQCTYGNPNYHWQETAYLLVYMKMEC

[2] = biological target: T1, USP18 (endogenous, THP-1 derived macrophages) (human (endogenous in THP-1)); experiment: co-IP; endogenous proteins, extracts of unstimulated THP-1 derived macrophages (Fig. 4h); precipitated with anti-USP18, immunoblot
[3] = biological target: T2, Flag-USP18 (not stated (human or mouse cDNA cloned)) (UniProt Q9UMW8); experiment: co-IP; 293T cells transfected with HA-IKKα, HA-IKKβ or HA-NEMO and Flag-USP18 (Fig. 4d); precipitated with anti-Flag beads, blotted with HA
T2 sequence: T1 sequence

Substance	binding [1]	binding [2]	binding [3]
NEMO (endogenous, THP-1 derived macrophages) (from UniProt Q9Y6K9 1-419)	binds	binds weakly	
HA-NEMO (from UniProt Q9Y6K9 1-419)			binds
